± gives the standard deviation of the averaged measurements. This is one part of the list.
compound: Nc1nc2c(ncn2[C@@H]2O[C@H](COP(=O)(O)OP(=O)(O)OP(=O)(O)O)[C@@H](O)[C@H]2O)c(=O)[nH]1 [guanosine triphosphate]; experiment: NP40-soluble protein abundance relative to vehicle (solubility fold change) (ratio); higher = more soluble protein in presence of GTP; settings: concentration: 4mM
How it was run: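 Values are fold changes against the detergent-processed vehicle, based on vsn-normalised intensities. Jurkat crude lysate was treated at eight concentrations from 0.1 to 10 mM (10 min at room temperature, then 3 min at 37 °C), solubilised with 0.8% NP40 and benzonase, ultracentrifuged and analysed by TMT-labelled LC-MS/MS over three independent experiments.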

The chains behind the UniProt entries cited, without tags or fusion partners. Where a name states a change or a piece, a line headed by the entry shows the natural chain unless it says otherwise.
UniProt Q9Y4K1: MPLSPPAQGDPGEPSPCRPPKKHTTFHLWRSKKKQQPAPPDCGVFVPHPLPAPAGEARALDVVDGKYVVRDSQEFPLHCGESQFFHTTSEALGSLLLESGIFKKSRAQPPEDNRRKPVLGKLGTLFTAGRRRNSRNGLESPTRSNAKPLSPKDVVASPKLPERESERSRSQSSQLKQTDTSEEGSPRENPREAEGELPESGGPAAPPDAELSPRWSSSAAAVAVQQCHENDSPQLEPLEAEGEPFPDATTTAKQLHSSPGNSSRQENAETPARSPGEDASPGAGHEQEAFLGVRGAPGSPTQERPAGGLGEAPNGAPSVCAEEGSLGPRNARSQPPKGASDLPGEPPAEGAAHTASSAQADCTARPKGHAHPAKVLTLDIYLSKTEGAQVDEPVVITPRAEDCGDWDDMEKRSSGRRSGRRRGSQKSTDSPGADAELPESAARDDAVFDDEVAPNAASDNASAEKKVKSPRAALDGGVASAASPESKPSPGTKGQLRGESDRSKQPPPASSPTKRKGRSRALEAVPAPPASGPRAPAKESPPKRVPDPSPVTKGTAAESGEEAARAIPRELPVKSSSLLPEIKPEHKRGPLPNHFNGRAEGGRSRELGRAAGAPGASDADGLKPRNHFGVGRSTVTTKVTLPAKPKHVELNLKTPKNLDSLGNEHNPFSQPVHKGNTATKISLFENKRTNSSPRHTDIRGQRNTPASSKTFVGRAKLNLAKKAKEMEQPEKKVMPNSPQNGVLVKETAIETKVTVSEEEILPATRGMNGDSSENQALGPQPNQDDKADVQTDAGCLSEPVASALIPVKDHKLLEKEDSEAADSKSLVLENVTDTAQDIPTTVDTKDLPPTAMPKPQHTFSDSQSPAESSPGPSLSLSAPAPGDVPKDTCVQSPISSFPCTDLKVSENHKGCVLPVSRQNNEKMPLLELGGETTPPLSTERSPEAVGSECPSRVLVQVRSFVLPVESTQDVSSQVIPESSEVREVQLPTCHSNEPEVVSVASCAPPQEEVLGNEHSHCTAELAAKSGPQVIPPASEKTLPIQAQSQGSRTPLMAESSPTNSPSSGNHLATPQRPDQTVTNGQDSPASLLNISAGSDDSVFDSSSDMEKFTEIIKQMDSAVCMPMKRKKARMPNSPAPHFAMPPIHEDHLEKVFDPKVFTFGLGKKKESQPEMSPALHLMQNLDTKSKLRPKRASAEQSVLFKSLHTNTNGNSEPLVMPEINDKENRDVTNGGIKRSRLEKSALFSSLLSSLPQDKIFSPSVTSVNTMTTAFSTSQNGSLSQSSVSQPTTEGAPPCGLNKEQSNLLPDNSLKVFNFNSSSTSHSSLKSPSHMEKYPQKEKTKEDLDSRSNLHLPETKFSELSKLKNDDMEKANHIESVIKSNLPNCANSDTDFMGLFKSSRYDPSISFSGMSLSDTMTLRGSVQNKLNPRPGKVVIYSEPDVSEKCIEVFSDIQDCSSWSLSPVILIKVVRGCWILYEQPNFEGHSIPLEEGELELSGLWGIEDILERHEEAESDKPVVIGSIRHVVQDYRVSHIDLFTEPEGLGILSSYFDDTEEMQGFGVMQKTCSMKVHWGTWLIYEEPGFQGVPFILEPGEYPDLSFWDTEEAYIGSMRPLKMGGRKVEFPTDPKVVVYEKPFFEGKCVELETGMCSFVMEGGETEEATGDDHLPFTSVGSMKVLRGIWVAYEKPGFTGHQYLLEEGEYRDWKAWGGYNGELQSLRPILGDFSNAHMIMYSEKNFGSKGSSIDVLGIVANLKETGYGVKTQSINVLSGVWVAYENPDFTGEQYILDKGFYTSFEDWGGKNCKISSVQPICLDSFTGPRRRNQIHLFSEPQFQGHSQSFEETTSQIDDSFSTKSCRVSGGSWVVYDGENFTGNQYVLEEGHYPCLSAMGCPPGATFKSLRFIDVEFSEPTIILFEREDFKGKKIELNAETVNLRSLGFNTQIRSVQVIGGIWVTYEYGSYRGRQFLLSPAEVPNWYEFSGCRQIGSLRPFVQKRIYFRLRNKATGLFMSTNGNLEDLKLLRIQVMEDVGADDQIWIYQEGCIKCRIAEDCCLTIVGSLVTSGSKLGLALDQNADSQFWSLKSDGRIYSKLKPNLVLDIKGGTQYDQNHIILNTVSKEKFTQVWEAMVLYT
UniProt Q96JP5: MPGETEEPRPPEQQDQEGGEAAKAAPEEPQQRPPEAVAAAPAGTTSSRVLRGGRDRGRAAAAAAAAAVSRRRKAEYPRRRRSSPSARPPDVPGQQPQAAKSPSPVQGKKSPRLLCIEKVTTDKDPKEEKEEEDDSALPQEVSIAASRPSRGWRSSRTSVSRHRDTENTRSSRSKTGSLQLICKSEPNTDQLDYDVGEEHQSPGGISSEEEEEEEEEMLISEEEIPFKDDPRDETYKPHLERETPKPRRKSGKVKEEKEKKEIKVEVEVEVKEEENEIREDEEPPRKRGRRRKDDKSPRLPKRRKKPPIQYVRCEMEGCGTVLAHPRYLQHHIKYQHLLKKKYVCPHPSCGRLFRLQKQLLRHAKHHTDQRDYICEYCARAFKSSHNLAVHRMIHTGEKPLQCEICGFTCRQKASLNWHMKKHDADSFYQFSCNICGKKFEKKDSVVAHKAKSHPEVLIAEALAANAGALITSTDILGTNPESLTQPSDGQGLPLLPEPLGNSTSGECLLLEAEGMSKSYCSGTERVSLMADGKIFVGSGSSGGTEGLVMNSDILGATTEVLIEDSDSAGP
UniProt Q9Y624: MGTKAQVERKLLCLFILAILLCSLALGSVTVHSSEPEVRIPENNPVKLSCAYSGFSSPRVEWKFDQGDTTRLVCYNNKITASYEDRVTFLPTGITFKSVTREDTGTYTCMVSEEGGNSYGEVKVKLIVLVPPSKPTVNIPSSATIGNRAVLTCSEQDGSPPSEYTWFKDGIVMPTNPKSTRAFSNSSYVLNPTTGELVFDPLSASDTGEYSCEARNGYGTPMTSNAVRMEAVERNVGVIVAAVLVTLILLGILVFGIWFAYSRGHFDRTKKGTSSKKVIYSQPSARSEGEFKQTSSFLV
UniProt I3L1I5, whole entry, looked up: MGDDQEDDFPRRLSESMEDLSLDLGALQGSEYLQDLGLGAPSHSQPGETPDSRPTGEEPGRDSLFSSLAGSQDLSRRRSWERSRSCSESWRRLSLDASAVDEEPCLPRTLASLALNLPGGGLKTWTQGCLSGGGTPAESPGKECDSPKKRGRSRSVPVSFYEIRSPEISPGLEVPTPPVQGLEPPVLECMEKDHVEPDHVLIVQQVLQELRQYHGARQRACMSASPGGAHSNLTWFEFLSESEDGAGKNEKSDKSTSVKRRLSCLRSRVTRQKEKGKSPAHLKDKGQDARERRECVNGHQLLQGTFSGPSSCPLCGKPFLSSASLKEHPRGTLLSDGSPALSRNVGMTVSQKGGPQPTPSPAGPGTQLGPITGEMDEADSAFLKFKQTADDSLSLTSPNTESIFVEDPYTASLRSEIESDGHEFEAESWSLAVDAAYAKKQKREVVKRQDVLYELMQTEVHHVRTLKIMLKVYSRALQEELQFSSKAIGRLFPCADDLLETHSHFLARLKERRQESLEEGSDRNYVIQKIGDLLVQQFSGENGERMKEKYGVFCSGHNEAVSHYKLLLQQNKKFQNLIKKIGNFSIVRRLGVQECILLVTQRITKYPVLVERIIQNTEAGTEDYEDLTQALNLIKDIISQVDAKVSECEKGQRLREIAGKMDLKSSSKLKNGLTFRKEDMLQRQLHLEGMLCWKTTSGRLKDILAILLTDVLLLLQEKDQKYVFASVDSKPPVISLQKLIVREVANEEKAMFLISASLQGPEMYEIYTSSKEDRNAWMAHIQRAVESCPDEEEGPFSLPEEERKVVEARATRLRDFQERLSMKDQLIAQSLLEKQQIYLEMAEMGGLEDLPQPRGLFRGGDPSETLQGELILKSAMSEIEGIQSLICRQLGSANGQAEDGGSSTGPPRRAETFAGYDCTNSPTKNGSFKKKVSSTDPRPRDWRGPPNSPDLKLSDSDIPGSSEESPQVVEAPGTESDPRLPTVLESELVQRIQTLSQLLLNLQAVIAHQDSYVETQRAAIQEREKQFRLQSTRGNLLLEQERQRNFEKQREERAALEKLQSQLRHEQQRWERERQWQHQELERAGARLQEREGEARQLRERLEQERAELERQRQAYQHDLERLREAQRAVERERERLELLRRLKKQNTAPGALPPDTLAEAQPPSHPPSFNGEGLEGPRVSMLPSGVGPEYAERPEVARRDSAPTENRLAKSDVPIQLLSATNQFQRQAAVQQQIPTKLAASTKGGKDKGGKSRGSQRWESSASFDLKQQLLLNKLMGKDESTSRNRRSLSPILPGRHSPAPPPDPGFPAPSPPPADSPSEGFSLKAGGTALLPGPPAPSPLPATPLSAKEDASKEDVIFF
UniProt Q6NVY1: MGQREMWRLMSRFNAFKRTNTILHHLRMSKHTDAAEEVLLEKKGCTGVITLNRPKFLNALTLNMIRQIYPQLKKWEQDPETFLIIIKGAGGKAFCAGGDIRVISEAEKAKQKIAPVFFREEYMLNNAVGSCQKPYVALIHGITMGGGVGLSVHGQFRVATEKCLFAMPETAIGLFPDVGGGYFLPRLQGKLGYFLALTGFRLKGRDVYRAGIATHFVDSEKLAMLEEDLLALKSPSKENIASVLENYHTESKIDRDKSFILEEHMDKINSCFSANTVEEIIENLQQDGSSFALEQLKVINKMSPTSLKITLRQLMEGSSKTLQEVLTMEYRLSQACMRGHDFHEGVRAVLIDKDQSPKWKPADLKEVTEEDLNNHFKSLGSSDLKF
UniProt Q05193: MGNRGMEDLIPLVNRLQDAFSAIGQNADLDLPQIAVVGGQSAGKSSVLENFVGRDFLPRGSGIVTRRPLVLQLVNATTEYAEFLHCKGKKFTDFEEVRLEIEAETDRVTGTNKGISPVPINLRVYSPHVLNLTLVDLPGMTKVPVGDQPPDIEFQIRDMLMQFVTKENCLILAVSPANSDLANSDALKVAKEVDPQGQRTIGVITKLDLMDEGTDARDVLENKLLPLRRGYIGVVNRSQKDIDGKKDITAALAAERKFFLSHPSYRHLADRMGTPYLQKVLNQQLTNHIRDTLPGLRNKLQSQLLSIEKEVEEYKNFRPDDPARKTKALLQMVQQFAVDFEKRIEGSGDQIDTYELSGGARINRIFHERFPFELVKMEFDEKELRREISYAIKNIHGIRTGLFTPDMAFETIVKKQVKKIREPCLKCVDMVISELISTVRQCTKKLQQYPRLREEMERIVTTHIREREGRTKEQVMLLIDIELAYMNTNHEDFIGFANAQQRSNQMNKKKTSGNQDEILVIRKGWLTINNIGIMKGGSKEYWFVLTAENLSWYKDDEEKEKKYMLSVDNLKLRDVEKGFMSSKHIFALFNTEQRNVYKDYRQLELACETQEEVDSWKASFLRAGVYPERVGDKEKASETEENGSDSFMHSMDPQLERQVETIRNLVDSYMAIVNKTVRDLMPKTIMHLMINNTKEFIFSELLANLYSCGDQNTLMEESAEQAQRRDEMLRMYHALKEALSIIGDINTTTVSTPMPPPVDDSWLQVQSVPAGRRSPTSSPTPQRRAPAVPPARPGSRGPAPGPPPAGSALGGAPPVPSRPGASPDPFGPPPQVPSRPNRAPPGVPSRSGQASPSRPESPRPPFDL
UniProt Q2M2I8: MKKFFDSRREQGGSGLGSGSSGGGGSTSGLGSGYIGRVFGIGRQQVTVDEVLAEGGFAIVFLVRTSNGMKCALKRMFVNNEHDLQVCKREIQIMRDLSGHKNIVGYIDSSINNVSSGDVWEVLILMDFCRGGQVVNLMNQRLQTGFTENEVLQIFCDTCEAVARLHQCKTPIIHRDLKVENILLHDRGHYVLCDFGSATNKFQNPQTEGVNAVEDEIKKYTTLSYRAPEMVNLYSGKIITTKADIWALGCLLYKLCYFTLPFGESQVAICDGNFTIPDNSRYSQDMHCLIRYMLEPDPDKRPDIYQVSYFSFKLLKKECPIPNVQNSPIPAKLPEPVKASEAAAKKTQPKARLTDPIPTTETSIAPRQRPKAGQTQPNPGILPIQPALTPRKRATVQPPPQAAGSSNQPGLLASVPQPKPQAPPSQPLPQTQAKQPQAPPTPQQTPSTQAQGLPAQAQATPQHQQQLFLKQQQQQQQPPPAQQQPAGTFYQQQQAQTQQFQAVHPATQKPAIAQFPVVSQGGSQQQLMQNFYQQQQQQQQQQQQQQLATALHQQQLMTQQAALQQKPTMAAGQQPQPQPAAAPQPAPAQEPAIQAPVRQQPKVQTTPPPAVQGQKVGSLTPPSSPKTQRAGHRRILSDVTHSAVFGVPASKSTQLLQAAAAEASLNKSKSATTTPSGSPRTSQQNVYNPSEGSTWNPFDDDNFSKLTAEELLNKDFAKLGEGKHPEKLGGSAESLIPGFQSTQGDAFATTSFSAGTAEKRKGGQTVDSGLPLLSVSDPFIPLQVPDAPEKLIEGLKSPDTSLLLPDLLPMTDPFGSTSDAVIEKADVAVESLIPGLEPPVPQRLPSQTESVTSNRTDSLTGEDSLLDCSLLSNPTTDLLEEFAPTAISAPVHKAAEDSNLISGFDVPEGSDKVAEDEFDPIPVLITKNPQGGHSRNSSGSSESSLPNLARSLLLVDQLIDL

Target	NP40-soluble protein abundance
A0A0G2JLB3|A0A0G2JNZ5|P04062 and related entries (UniProt P04062)	0.972 ± 0.049
A0A0B4J1R7|Q96B45 (UniProt Q96B45)	1.09 ± 0.24
A0A0A0MT22|P08575 and related entries (UniProt P08575)	0.878 ± 0.055
A0A0J9YWL0|Q9Y4K1 (UniProt Q9Y4K1)	1.04 ± 0.029
A0A087WZ97|A0A087WZK6|A0A087X2C2|Q5T7M9 (UniProt Q5T7M9)	1.05 ± 0.1
UniProt A4D161 and related entries	1.01 ± 0.09
A0A0A6YYC7|Q96JP5 and related entries (UniProt Q96JP5)	0.904 ± 0.087
A0A0C4DGJ7|Q8WUH1 and related entries (UniProt Q8WUH1)	0.961 ± 0.057
A0A087WY82|Q9Y624 and related entries (UniProt Q9Y624)	0.851 ± 0.066
A0A0A6YYC8|I3L1I5 (UniProt I3L1I5)	1.28 ± 0.077
A0JP02 and related entries (UniProt Q9HAU0)	1.07 ± 0.062
A0A140T9B7|P01889 and related entries (UniProt P30493+P30685+Q04826+D0EV57+P01889+P30460+Q29865+Q6DU44+Q8MH48+P10321+P30486+P30508+Q29718+Q29836+P04440+P04439+Q5SRN5+O19617+Q29963+Q9TNN7)	0.898 ± 0.07
A6NCE7 and related entries (UniProt Q9GZQ8+H3BTL1+A6NCE7)	0.894 ± 0.078
A0A0G2JIW1|P0DMV8 and related entries (UniProt P0DMV9+P0DMV8)	0.948 ± 0.075
A0A087X127|E7EWM3 and related entries (UniProt Q8NF64)	0.868 ± 0.12
A0A0C3SFZ9|M0QZI3 and related entries (UniProt O14526)	1.03 ± 0.017
A0A0B4J2A0|Q9UHJ6 (UniProt Q9UHJ6)	0.978 ± 0.085
A2IDA3 and related entries (UniProt P29372)	1.16 ± 0.1

Target	NP40-soluble protein abundance
A0A0A0MR05|H3BSZ4 and related entries (UniProt Q9BVC4)	1.09 ± 0.0077
A0A087WXI1|Q6NVY1 (UniProt Q6NVY1)	0.863 ± 0.087
A0A0D9SFB1|A0A0D9SFE4|A0A0U1RQP1|Q05193 and related entries (UniProt Q05193)	0.961 ± 0.21
A0A087X1G1|C9IZN5 and related entries (UniProt Q16718)	1.14 ± 0.19
A0A0C4DFQ0|E9PL24 and related entries (UniProt Q5VU43)	0.991 ± 0.081
A0A087X0V4|A8K0B5 and related entries (UniProt Q8IWT0)	1.05 ± 0.1
A0A096LPH6|Q14966 and related entries (UniProt Q14966)	1.02 ± 0.062
A0A0C4DG40|Q8NF91 and related entries (UniProt Q8NF91)	1.01 ± 0.052
A0A0J9YXZ6|Q4VXZ8 and related entries (UniProt Q9NUI1)	1.063 ± 0.0061
A0A0A0MTB8|Q8NI36 (UniProt Q8NI36)	2 ± 0.13
A0A087X1F9|E9PI02 and related entries (UniProt Q00613)	0.852 ± 0.1
A0A087WXZ7|K7EIX2 and related entries (UniProt Q6AI08)	1.02 ± 0.076
A0A087WXN4|Q96CB8 (UniProt Q96CB8)	1 ± 0.093
A0A0A0MQZ6|O95478 (UniProt O95478)	1.23 ± 0.023
A0A0A6YYI3|A0A0B4J1V8|Q9NQ55 and related entries (UniProt Q9NQ55)	1.03 ± 0.047
A0A096LP25|Q2M2I8 and related entries (UniProt Q2M2I8)	0.968 ± 0.078
A0A0A0MT72|E9PEC4 and related entries (UniProt Q9BSQ5)	0.939 ± 0.03
A0A0J9YYD9	1.18 ± 0.027

same assay, conditions: concentration: 6mM

Target	NP40-soluble protein abundance
A0A0G2JLB3|A0A0G2JNZ5|P04062 and related entries (UniProt P04062)	0.922 ± 0.11
A0A0B4J1R7|Q96B45 (UniProt Q96B45)	1 ± 0.19
A0A0A0MT22|P08575 and related entries (UniProt P08575)	0.904 ± 0.052
A0A0J9YWL0|Q9Y4K1 (UniProt Q9Y4K1)	1.063 ± 0.0069
A0A087WZ97|A0A087WZK6|A0A087X2C2|Q5T7M9 (UniProt Q5T7M9)	0.947 ± 0.065
UniProt A4D161 and related entries	0.974 ± 0.14
A0A0A6YYC7|Q96JP5 and related entries (UniProt Q96JP5)	0.962 ± 0.065
A0A0C4DGJ7|Q8WUH1 and related entries (UniProt Q8WUH1)	0.988 ± 0.021
A0A087WY82|Q9Y624 and related entries (UniProt Q9Y624)	0.952 ± 0.01
A0A0A6YYC8|I3L1I5 (UniProt I3L1I5)	1.35 ± 0.068
A0JP02 and related entries (UniProt Q9HAU0)	1.097 ± 0.0031
A0A140T9B7|P01889 and related entries (UniProt P30493+P30685+Q04826+D0EV57+P01889+P30460+Q29865+Q6DU44+Q8MH48+P10321+P30486+P30508+Q29718+Q29836+P04440+P04439+Q5SRN5+O19617+Q29963+Q9TNN7)	0.903 ± 0.081
A6NCE7 and related entries (UniProt Q9GZQ8+H3BTL1+A6NCE7)	0.926 ± 0.094
A0A0G2JIW1|P0DMV8 and related entries (UniProt P0DMV9+P0DMV8)	0.942 ± 0.052
A0A087X127|E7EWM3 and related entries (UniProt Q8NF64)	0.957 ± 0.12
A0A0C3SFZ9|M0QZI3 and related entries (UniProt O14526)	0.984 ± 0.011
A0A0B4J2A0|Q9UHJ6 (UniProt Q9UHJ6)	0.964 ± 0.045
A2IDA3 and related entries (UniProt P29372)	1.28 ± 0.18

Target	NP40-soluble protein abundance
A0A0A0MR05|H3BSZ4 and related entries (UniProt Q9BVC4)	1.074 ± 0.0029
A0A087WXI1|Q6NVY1 (UniProt Q6NVY1)	0.867 ± 0.092
A0A0D9SFB1|A0A0D9SFE4|A0A0U1RQP1|Q05193 and related entries (UniProt Q05193)	0.947 ± 0.21
A0A087X1G1|C9IZN5 and related entries (UniProt Q16718)	1.11 ± 0.18
A0A0C4DFQ0|E9PL24 and related entries (UniProt Q5VU43)	1.02 ± 0.079
A0A087X0V4|A8K0B5 and related entries (UniProt Q8IWT0)	1.04 ± 0.18
A0A096LPH6|Q14966 and related entries (UniProt Q14966)	1.06 ± 0.083
A0A0C4DG40|Q8NF91 and related entries (UniProt Q8NF91)	1 ± 0.048
A0A0J9YXZ6|Q4VXZ8 and related entries (UniProt Q9NUI1)	1.05 ± 0.041
A0A0A0MTB8|Q8NI36 (UniProt Q8NI36)	2.39 ± 0.2
A0A087X1F9|E9PI02 and related entries (UniProt Q00613)	0.887 ± 0.093
A0A087WXZ7|K7EIX2 and related entries (UniProt Q6AI08)	1.07 ± 0.018
A0A087WXN4|Q96CB8 (UniProt Q96CB8)	1.03 ± 0.058
A0A0A0MQZ6|O95478 (UniProt O95478)	1.3 ± 0.11
A0A0A6YYI3|A0A0B4J1V8|Q9NQ55 and related entries (UniProt Q9NQ55)	1.18 ± 0.019
A0A096LP25|Q2M2I8 and related entries (UniProt Q2M2I8)	0.961 ± 0.077
A0A0A0MT72|E9PEC4 and related entries (UniProt Q9BSQ5)	0.861 ± 0.025
A0A0J9YYD9	1.144 ± 0.0065

From the supplement of paper PMC6411743
